Laboratory results: PubChem BioAssay AID504784 (Drosophila RNAi Screening Center, 2011)
In all, the deposit lists about 17,000 reagents; shown is a random part of those with a known target gene and a result. 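Each column is one replicate's B-score; the combined score over replicates was not deposited, so single values may mislead.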 The numbers tell different reagents against one gene apart.

Aim: 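Genome-wide knock-down for genes giving too much or too little stored lipid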 (primary screen)
System: Drosophila Kc167 embryonic cells
Reagents: long dsRNA against Drosophila genes, about 250 ng dsRNA per well
Duration: 4 days
Treatment: cells fed 400 µM oleic acid bound to BSA
Read-out: 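Cells imaged and segmented; ratio of lipid droplet area to nuclear area, log-transformed, then normalised as a B-score over the screen; higher means more stored lipid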
Scale: droplet/nuclear area B-score: higher = more stored lipid (overstorage)

| gene | reagent no. | droplet/nuclear area B-score, replicate 1 | droplet/nuclear area B-score, replicate 2 | droplet/nuclear area B-score, replicate 3 |
| --- | --- | --- | --- | --- |
| E(Pc) (Enhancer of Polycomb) | 1 | -0.0363 | 0.237 | – |
| E(Pc) (Enhancer of Polycomb) | 2 | 0.687 | 0.868 | – |
| CG10132 | 1 | -2.62 | 0.13 | – |
| CG13318 | 1 | -0.106 | 0.209 | – |
| CG8245 | 1 | 0.573 | 1.71 | 0.000529 |
| CG7458 | 1 | -0.238 | 0.998 | 1.85 |
| CG7458 | 2 | -2.14 | 0.952 | – |
| CG15473 | 1 | 1.28 | 2.12 | – |
| CG13033 | 1 | -0.34 | 0.00143 | – |
| OtopLb (Otopetrin-like b) | 1 | -0.546 | -0.314 | – |
| CG13671 | 1 | -0.776 | 0.499 | – |
| eIF3j (eukaryotic translation initiation factor 3 subunit j) | 1 | 1.9 | -0.0728 | – |
| Toll-4 | 1 | 0.35 | -0.111 | – |
| CG17486 | 1 | 0.512 | -1.14 | – |
| CG9682 | 1 | 0.522 | -0.344 | – |
| CG10841 | 1 | -0.0743 | 9.16 | – |
| CG13247 | 1 | -0.89 | -1.55 | – |
| Cyt-b5-r (Cytochrome b5-related) | 1 | -0.488 | 0.0543 | – |
| dpr4 (defective proboscis extension response 4) | 1 | -0.0142 | -0.471 | – |
| dpr4 (defective proboscis extension response 4) | 2 | 0.877 | -0.684 | – |
| Gp93 (Glycoprotein 93) | 1 | 0.695 | 1.03 | – |

5 of these entries, set out differently:
{"gene": "CG8245", "reagent no.": 1, "droplet/nuclear area B-score, replicate 1": 0.573, "droplet/nuclear area B-score, replicate 2": 1.71, "droplet/nuclear area B-score, replicate 3": 0.000529}
{"gene": "CG7458", "reagent no.": 1, "droplet/nuclear area B-score, replicate 1": -0.238, "droplet/nuclear area B-score, replicate 2": 0.998, "droplet/nuclear area B-score, replicate 3": 1.85}
{"gene": "CG7458", "reagent no.": 2, "droplet/nuclear area B-score, replicate 1": -2.14, "droplet/nuclear area B-score, replicate 2": 0.952}
{"gene": "CG15473", "reagent no.": 1, "droplet/nuclear area B-score, replicate 1": 1.28, "droplet/nuclear area B-score, replicate 2": 2.12}
{"gene": "CG13033", "reagent no.": 1, "droplet/nuclear area B-score, replicate 1": -0.34, "droplet/nuclear area B-score, replicate 2": 0.00143}

The listing continues:
| gene | reagent no. | droplet/nuclear area B-score, replicate 1 | droplet/nuclear area B-score, replicate 2 | droplet/nuclear area B-score, replicate 3 |
| --- | --- | --- | --- | --- |
| CG32793 | 1 | -0.0182 | 0.0721 | – |
| CG32793 | 2 | 1.28 | 0.71 | – |
| CG4849 | 1 | 1.21 | – | – |
| CG9123 | 1 | -0.231 | -1.55 | – |
| Pgant9 (Polypeptide N-Acetylgalactosaminyltransferase 9) | 1 | 1.69 | 0.726 | – |
| Pgant9 (Polypeptide N-Acetylgalactosaminyltransferase 9) | 2 | 1.32 | 0.615 | – |
| Pgant9 (Polypeptide N-Acetylgalactosaminyltransferase 9) | 3 | 0.25 | -0.667 | – |
| Pgant9 (Polypeptide N-Acetylgalactosaminyltransferase 9) | 4 | 3.11 | 4.41 | – |
| Pgant9 (Polypeptide N-Acetylgalactosaminyltransferase 9) | 5 | 2.87 | -0.722 | – |
| Pgant9 (Polypeptide N-Acetylgalactosaminyltransferase 9) | 6 | 0.466 | -0.0759 | – |
| Pgant9 (Polypeptide N-Acetylgalactosaminyltransferase 9) | 7 | -0.33 | 0.154 | – |
| Pgant9 (Polypeptide N-Acetylgalactosaminyltransferase 9) | 8 | -1.37 | -0.345 | – |
| Spn38F (Serpin 38F) | 1 | -0.87 | -0.763 | – |
